Experimental data: PubChem BioAssay AID504834 (National Center for Advancing Translational Sciences (NCATS), 2011)
Screen size: about 320,000 compounds; about 22,000 (6.9%) were called active. Inconclusive results, whose numbers are uncertain, are shown with a selection of clear calls. Calls follow the shape of the dose curve; as a rule, active = well fitted inhibition curve with a large enough effect; inconclusive = small, poorly fitted or top-dose-only effect, or another doubt; inactive = no such curve, though single readings can be large or run the other way. Where the call is inconclusive, the potency comes from a doubtful curve fit.

Assay: Primary qHTS for delayed death inhibitors of the malarial parasite plastid, 96 hour incubation
Conditions: P. falciparum luciferase reporter growth; series mostly up to 28.7 µM; activity change, negative = inhibition: at the top concentration
In short: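 Readout is luminescence from an integrated firefly luciferase in P. falciparum. Red cells, 2% hematocrit and 0.05% parasitemia final, were cultured with compound through two parasite generations (96 hours) at 37 C, 5% CO2.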
% is scaled to controls: 0 for no effect and ±100 for the full control effect; potency is read from the fitted curve at half-maximal effect.

| SMILES | Potency | activity change, negative = inhibition |
| --- | --- | --- |
| CCN(CC)c1nc(C#N)nc(N(CC)CC)n1 | inconclusive: 11.7 µM [inhibitor, single point] | – |
| Cc1ccc(C(C)C)c(OCc2nc(-c3nonc3N)no2)c1 | active: 4.65 µM | – |
| CCOc1ccc(CNC(=O)CCS(=O)(=O)c2ccc3c(c2)oc(=O)n3C)cc1 | inconclusive: 18.5 µM [inhibitor, single point] | – |
| CCNc1nc(SCC(=O)Nc2ccc(Cl)c(Cl)c2)nc(N2CCOCC2)n1 | – | inactive: -0.566% |
| COc1ccc(S(=O)(=O)N(CC(=O)NC2CC2)c2ccc(C)cc2)cc1OC | inconclusive: 9.28 µM [inhibitor, single point] | – |
| Cc1nc2ccc(NC(=O)Cc3ccc(Br)cc3)cc2s1 | – | inactive: 14.9% |
| O=C(Nc1ccc(F)cc1)c1cc(-c2ccncc2)nc2c(Cl)cccc12 | – | inactive: 22.3% |
| CNC(=S)NNC(=O)Cc1ccc(OC)c(OC)c1 | inconclusive: 2.94 µM [inhibitor, partial curve, poor fit] | – |
| CC(CN1CCN(C)CC1)OC(=O)c1ccc(Cl)cc1 (stereo not drawn) | inconclusive: 5.86 µM [inhibitor, partial curve] | – |
| CCc1ccc(NC(=O)C2CC=CCC2C(=O)O)cc1 (stereo not drawn) | – | inactive: 18.1% |
| CCOc1cc(N2CCOCC2)c(OCC)cc1NC(=O)CSc1ccccc1C(=O)O | active: 9.28 µM | – |
| Cc1ccc(NC(=O)CSCC(=O)Nc2cccc(S(=O)(=O)N3CCCCCC3)c2)cc1 | inconclusive: 18.5 µM [inhibitor, single point] | – |
| Cc1csc(N(C(=O)c2cccc(S(=O)(=O)N(C)C)c2)c2ccccc2)n1 | active: 8.28 µM | – |
| O=C(NN1C(=O)/C(=C/c2ccc(O)c(O)c2)SC1=S)c1ccccc1 | active: 10.4 µM | – |
| O=C(NCCOC(=O)c1ccc(S(=O)(=O)N2CCOCC2)cc1)c1cccnc1 | active: 2.33 µM | – |
| CC(C)Oc1ccc(/C=N/NC(=O)C2CCCN2S(=O)(=O)c2ccc(Cl)cc2)cc1 (stereo not drawn) | inconclusive: 18.5 µM [inhibitor, single point] | – |
| NC(=O)c1ccccc1NC(=O)c1ccc2c(c1)OCO2 | – | inactive: 0.687% |
| CC(=O)c1cccc(NS(=O)(=O)c2ccc(-c3cnc(C4CC4)o3)cc2)c1 | inconclusive: 18.5 µM [inhibitor, single point] | – |
| O=C(CCN1CCCCO1)N1CCCC(N2CCN(c3ccc(F)cc3)CC2)C1 (stereo not drawn) | inconclusive: 18.5 µM [inhibitor, single point] | – |
| CNC(=O)CS(=O)(=O)CC(=O)Nc1cc(OC(C)C)c(Cl)cc1Cl | – | inactive: -24.7% |
| O=c1c2ccccc2[nH]c(=S)n1-c1ccc2c(c1)OCO2 | – | inactive: 9.67% |
| O=[N+]([O-])c1cc(S(=O)(=O)c2ccc(N3CCCCC3)c([N+](=O)[O-])c2)ccc1N1CCCCC1 | – | inactive: -7.63% |
| CN(c1ccc(C(=O)Nc2ccccc2Sc2ccccc2)cc1)S(C)(=O)=O | inconclusive: 20.8 µM [inhibitor, single point] | – |
| Brc1cccc(CNCc2ccncc2)c1 | inconclusive: 18.5 µM [inhibitor, single point] | – |
| Cc1cccc(S(=O)(=O)N(CC(=O)Nc2ccccc2C)Cc2ccco2)c1 | active: 11.7 µM | – |

| SMILES | Potency | activity change, negative = inhibition |
| --- | --- | --- |
| COc1ccc(C2=CC3=C(Br)C(=O)C(C)(OC(=O)c4ccc(Cl)nc4)C(=O)C3=CO2)cc1 (stereo not drawn) | – | inactive: 46.8% |
| CCNC(=S)N1CCn2cccc2C1c1cccnc1 (stereo not drawn) | inconclusive: 11.7 µM [inhibitor, single point] | – |
| CC(C)CNC(=O)c1cc(S(=O)(=O)N2CCOCC2)ccc1N1CCCC1 | inconclusive: 20.8 µM [inhibitor, single point] | – |
| COCCn1c(SCC(=O)Nc2cccc(S(N)(=O)=O)c2)nc2ccccc21 | inconclusive: 0.0738 µM [inhibitor, full curve, poor fit] | – |
| Cc1ccc2c(c1)N(C(=O)CCC(=O)N1CCC(C(N)=O)CC1)CC(C)O2 (stereo not drawn) | active: 13.1 µM | – |
| Fc1ccc(NCc2cccnc2)cc1 | inconclusive: 11.7 µM [inhibitor, single point] | – |
| C/C(=C\C=C\c1ccccc1)C(=O)c1c(C)cc(C)[nH]c1=O | – | inactive: 5.82% |
| CN(Cc1ccon1)Cc1cn[nH]c1-c1ccc(-c2ccccc2)cc1 | – | inactive: -19.4% |
| Cc1cccc(C)c1NC(=S)N(CCN1CCCCCC1)Cc1ccco1 | inconclusive: 8.28 µM [inhibitor, partial curve, poor fit] | – |
| Cc1cccc(NC(=O)COC(=O)c2ccc([N+](=O)[O-])o2)c1C | – | inactive: -1.31% |
| COc1ccc(N(C)S(=O)(=O)c2cccc(C(=O)Nc3nnc(C)s3)c2)cc1 | inconclusive: 18.5 µM [inhibitor, single point] | – |
| COc1cc(OC)c(C(=O)Nc2ccc(C(=O)c3ccccc3)cc2)cc1OC | inconclusive: 10.4 µM [inhibitor, single point] | – |
| CCOC(=O)c1sc2nc(C)cc(C)c2c1NC(=O)c1ccco1 | – | inactive: 17.6% |
| C[N+]1(C)CCC(=C2c3ccccc3CC(=O)c3sccc32)CC1 | inconclusive: 8.28 µM [inhibitor, partial curve, poor fit] | – |
| CCNC(=O)N1CCCC(C(=O)c2ccc3cc(OC)ccc3c2)C1 (stereo not drawn) | inconclusive: 16.5 µM [inhibitor, single point] | – |
| Cc1nn(-c2ccccc2)c(C)c1NC(=O)COC(=O)C1CC(=O)N(CCc2ccccc2)C1 (stereo not drawn) | – | inactive: 23% |
| Cc1ccc(-n2nc3c(=O)n(CC(=O)NCc4ccccc4)nc(C)c3c2C)cc1 | – | inactive: 14.1% |
| C/C(=N\NC(=O)C(N)=O)c1ccc(O)cc1O | – | inactive: -8.87% |
| COc1cccc(/C=N/NC(=O)c2ccc(-c3ccccc3)cc2)c1O | active: 7.38 µM | – |
| Cn1ccnc1CC(O)(c1ccccc1)c1ccccc1 | inconclusive: 11.7 µM [inhibitor, single point] | – |
| Cc1cc(Cn2nnc(-c3ccc(Br)cc3)n2)cc(C)c1O | – | inactive: 1.16% |
| COc1cccc(NC(=O)NCCCCc2ccccc2)c1 | inconclusive: 16.5 µM [inhibitor, partial curve, poor fit] | – |
| CSc1ncc(C(C)=O)c(C)n1 | – | inactive: 36.6% |
| CC1=CC(C)(C)[N+](C)=CN1c1ccccc1 | active: 8.28 µM | – |
| O=C(Cn1ncn2c(cc3ccccc32)c1=O)NCc1ccco1 | inconclusive: 2.08 µM [inhibitor, full curve] | – |

| SMILES | Potency | activity change, negative = inhibition |
| --- | --- | --- |
| Cc1csc(=O)n1CCC(=O)OCC(=O)Nc1ccc(S(N)(=O)=O)cc1 | inconclusive: 18.5 µM [inhibitor, single point] | – |
| Cc1ccc(-n2nnnc2SCC(=O)N2c3ccccc3NC(=O)C2(C)C)cc1 | inconclusive: 18.5 µM [inhibitor, single point] | – |
| Cc1cccc(NC(=S)N2CCN(c3ccccn3)CC2)c1 | inconclusive: 10.4 µM [inhibitor, single point] | – |
| Cc1cc(C(=O)Nc2ccc(N3CCCCC3)cc2)no1 | inconclusive: 3.7 µM [inhibitor, full curve, poor fit] | – |
| COc1ccc(-c2c(-c3ccc(OCC(=O)NN)cc3O)n[nH]c2C(F)(F)F)cc1 | active: 9.28 µM | – |
| CCOC(=O)/C(=N\Nc1ccc(C(C)=O)cc1)c1csc(Nc2ccccc2)n1 | – | inactive: 0.579% |
| CC(C)OP(=O)(OC(C)C)C(Nc1ccccc1)c1ccc2c(c1)OCO2 (stereo not drawn) | inconclusive: 10.4 µM [inhibitor, single point] | – |
| Nc1cc(N)nc(SCC(=O)c2ccccc2)n1 | inconclusive: 16.5 µM [inhibitor, partial curve, poor fit] | – |
| CCOc1ccc(S(=O)(=O)N2CN3CCN(C3)C2)cc1 | inconclusive: 10.4 µM [inhibitor, single point] | – |
| O=[N+]([O-])c1cccc(S(=O)(=O)Nc2ccc(-c3ccc(N4CCCC4)nn3)cc2)c1 | inconclusive: 1.65 µM [inhibitor, full curve] | – |
| COc1ccc(C(=O)NCc2nnc(SCC(=O)c3ccccc3)o2)cc1 | inconclusive: 18.5 µM [inhibitor, single point] | – |
| COc1ccc(S(=O)(=O)N(C)C)cc1NCC(=O)Nc1ccc(Br)c(C)c1 | inconclusive: 7.38 µM [inhibitor, partial curve] | – |
| COc1cc(C=Nc2ccccc2C(=O)Nc2ccccc2)cc(OC)c1OC | inconclusive: 9.28 µM [inhibitor, partial curve] | – |
| CC1CCCCN1S(=O)(=O)c1ccc(C(=O)Nc2nnc(-c3ccccc3Cl)o2)cc1 (stereo not drawn) | – | inactive: 3.91% |
| CCOC(=O)C(C)(C)Sc1nc2c(cnn2-c2ccc(Cl)cc2)c(=O)[nH]1 | inconclusive: 8.28 µM [inhibitor, partial curve] | – |
| O=c1oc(-c2ccccc2[N+](=O)[O-])nc2ccccc12 | inconclusive: 0.104 µM [inhibitor, full curve, poor fit] | – |
| COc1cc(/C=C(\C#N)C(=O)NC(C)C)ccc1OCc1ccc(C(=O)O)cc1 | – | inactive: -22.5% |
| CN(C)c1ccc(CN(C(=O)c2ccccc2Br)C2CCS(=O)(=O)C2)cc1 (stereo not drawn) | active: 13.1 µM | – |
| Cc1cc(OCC(=O)N(C)c2ccccc2)cc2c1C(=O)CC(C)(C)O2 | inconclusive: 18.5 µM [inhibitor, single point] | – |
| CCC1CCC(N2CCN(c3ccc([N+](=O)[O-])cc3)CC2)CC1 (stereo not drawn) | inconclusive: 13.1 µM [inhibitor, single point] | – |
| CCOC(=O)C1=C(CC)Nc2ccccc2N=C1NC(=O)c1cccc(S(=O)(=O)N2CCOCC2)c1 | inconclusive: 18.5 µM [inhibitor, single point] | – |
| COc1ccc(CC(=O)Nc2ccc(S(=O)(=O)N(C)C3CCN(C)CC3)cc2)cc1 | inconclusive: 13.1 µM [inhibitor, single point] | – |
| Cc1nc2cc(-c3cccc(Cl)c3)nn2c(N2CCN(C(=O)c3ccco3)CC2)c1C | – | inactive: 29.8% |
